Our source for the binding values is article PMC6451435.

By UniProt entry, the sequences of proteins in these tests, tags left out.
UniProt P35222: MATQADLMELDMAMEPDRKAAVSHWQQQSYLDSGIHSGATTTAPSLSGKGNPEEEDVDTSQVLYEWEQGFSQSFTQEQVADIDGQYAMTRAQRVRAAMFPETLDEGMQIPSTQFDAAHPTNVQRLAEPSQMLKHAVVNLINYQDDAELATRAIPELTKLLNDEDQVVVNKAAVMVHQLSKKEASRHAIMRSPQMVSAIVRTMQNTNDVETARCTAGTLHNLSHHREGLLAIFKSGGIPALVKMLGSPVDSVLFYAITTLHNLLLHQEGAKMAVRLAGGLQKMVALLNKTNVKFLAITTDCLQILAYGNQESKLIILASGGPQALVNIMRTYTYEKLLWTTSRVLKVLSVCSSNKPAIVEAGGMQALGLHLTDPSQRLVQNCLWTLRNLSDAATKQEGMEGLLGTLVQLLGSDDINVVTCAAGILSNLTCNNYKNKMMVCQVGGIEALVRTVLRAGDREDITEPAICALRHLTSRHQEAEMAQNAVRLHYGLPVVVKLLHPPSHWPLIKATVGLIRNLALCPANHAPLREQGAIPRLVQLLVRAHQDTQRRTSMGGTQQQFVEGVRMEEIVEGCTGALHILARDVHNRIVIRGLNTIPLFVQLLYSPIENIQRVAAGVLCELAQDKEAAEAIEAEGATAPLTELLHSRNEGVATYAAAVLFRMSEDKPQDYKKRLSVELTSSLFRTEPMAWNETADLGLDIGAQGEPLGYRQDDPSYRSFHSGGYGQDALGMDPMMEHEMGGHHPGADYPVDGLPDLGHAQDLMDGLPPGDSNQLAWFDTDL

These are yes or no findings as the source states them, for the method shown. In cells and extracts the contact can be indirect. Some binding calls cover weakened binding; strength is not graded here.

Experiment [1] has as its target T1, B-cell lymphoma 3 (BCL-3) (human (endogenous in SW1463 and SW620)) (UniProt P20749).
T1 sequence: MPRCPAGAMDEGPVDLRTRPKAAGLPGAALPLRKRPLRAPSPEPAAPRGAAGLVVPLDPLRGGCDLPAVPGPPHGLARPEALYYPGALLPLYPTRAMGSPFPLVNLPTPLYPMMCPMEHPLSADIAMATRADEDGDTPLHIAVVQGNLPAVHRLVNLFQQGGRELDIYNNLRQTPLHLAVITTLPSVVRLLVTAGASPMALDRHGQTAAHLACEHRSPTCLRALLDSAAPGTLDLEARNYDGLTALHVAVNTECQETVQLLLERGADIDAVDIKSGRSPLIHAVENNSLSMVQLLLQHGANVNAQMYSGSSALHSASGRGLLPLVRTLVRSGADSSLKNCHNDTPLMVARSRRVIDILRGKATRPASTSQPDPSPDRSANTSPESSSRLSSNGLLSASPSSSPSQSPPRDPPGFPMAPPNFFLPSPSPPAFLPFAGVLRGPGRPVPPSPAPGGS
The experiment is described as follows: co-IP; BCL-3 immunoprecipitated with anti-BCL-3 antibody on Dynabeads Protein A from 500 µg SW1463 nuclear-enriched lysate pre-cleared with rabbit pan-IgG; cells untreated or treated with 100 ng/ml TNF-α for 6 h before lysis; western blot. Background: In western blotting, separated proteins are transferred to a membrane and probed.

Experiment [2] deals with β-catenin (human (endogenous in SW1463 and SW620)) (UniProt P35222). The experiment is described as follows: co-IP; nuclear β-catenin Co-IP in SW620 cells, non-treated and treated with TNF-α for 6 h; mouse pan-IgG as negative control; western blot.

Take β-catenin (from UniProt P35222 1-781): the binding entry in experiment [1] was “binds”.

B1: B-cell lymphoma 3 (BCL-3) (protein, UniProt P20749 1-454)
chain: MPRCPAGAMDEGPVDLRTRPKAAGLPGAALPLRKRPLRAPSPEPAAPRGAAGLVVPLDPLRGGCDLPAVPGPPHGLARPEALYYPGALLPLYPTRAMGSPFPLVNLPTPLYPMMCPMEHPLSADIAMATRADEDGDTPLHIAVVQGNLPAVHRLVNLFQQGGRELDIYNNLRQTPLHLAVITTLPSVVRLLVTAGASPMALDRHGQTAAHLACEHRSPTCLRALLDSAAPGTLDLEARNYDGLTALHVAVNTECQETVQLLLERGADIDAVDIKSGRSPLIHAVENNSLSMVQLLLQHGANVNAQMYSGSSALHSASGRGLLPLVRTLVRSGADSSLKNCHNDTPLMVARSRRVIDILRGKATRPASTSQPDPSPDRSANTSPESSSRLSSNGLLSASPSSSPSQSPPRDPPGFPMAPPNFFLPSPSPPAFLPFAGVLRGPGRPVPPSPAPGGS
As to B1, the binding result in experiment [2] is “binds”.
